Measurements from PMC11406306.
Results are given in words; binding and its absence hold for the method and conditions named. For some assays here: Binding seen in cells or lysates may run through a third protein. Some entries that bind do so weakly or less than the wild type. Tags and fused reporters may be left off the sequences shown.

T1: STM-GFP (Arabidopsis thaliana) (UniProt Q38874)
T1 sequence: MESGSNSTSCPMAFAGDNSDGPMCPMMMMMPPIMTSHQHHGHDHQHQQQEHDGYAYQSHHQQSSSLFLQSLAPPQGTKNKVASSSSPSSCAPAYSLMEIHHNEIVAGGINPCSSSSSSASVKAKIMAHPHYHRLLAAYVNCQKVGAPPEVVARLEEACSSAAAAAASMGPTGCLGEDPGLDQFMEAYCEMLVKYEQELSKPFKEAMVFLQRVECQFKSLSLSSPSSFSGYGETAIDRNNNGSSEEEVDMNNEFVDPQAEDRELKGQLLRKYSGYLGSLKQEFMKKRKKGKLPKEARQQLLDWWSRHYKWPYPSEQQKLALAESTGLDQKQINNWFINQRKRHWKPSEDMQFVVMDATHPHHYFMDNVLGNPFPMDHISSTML

T2: BD-SnRK1α1 (α1-subunit of SUCROSE NON-…1-RELATED KINASE 1 fused to the GAL4 DNA binding domain) (Arabidopsis thaliana) (UniProt Q38997)
T2 sequence: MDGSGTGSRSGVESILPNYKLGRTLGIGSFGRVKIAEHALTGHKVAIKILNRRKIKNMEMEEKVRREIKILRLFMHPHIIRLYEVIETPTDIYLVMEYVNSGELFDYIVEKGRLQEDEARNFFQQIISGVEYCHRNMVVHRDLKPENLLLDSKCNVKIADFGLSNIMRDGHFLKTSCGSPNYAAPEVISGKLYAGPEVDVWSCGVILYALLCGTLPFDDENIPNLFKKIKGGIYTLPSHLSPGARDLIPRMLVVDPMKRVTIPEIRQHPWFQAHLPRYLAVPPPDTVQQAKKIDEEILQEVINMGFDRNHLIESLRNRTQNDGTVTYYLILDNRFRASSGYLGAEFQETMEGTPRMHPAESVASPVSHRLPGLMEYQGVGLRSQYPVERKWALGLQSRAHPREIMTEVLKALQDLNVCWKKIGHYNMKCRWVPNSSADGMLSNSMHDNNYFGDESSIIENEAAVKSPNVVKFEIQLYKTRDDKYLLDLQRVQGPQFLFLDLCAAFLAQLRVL


Columns and labels:
[1] = target: T1, STM-GFP (Arabidopsis thaliana); assay: co-IP; Arabidopsis Col-0 mesophyll cell protoplasts coexpressing SnRK1α1-HA with STM-GFP or GFP alone; GFP-tagged proteins immunoprecipitated, SnRK1α1 detected by immunoblot with an HA antibody; performed three times
[2] = target: T2, BD-SnRK1α1 (α1-subunit of SUCROSE NON-…1-RELATED KINASE 1 fused to the GAL4 DNA binding domain) (Arabidopsis thaliana); assay: two-hybrid; GAL4 system; AD-STM coexpressed with BD-SnRK1α1 in yeast; growth on medium lacking Leu, Trp and His (-L-W-H) compared with -L-W; dilutions 10^-1, 10^-2, 10^-3; empty-vector controls; performed three times

| binding [1] | binding [2] | Binder |
| --- | --- | --- |
| binds |  | SnRK1α1-HA (enzyme, UniProt Q38997 1-512) MDGSGTGSRSGVESILPNYKLGRTLGIGSFGRVKIAEHALTGHKVAIKILNRRKIKNMEMEEKVRREIKILRLFMHPHIIRLYEVIETPTDIYLVMEYVNSGELFDYIVEKGRLQEDEARNFFQQIISGVEYCHRNMVVHRDLKPENLLLDSKCNVKIADFGLSNIMRDGHFLKTSCGSPNYAAPEVISGKLYAGPEVDVWSCGVILYALLCGTLPFDDENIPNLFKKIKGGIYTLPSHLSPGARDLIPRMLVVDPMKRVTIPEIRQHPWFQAHLPRYLAVPPPDTVQQAKKIDEEILQEVINMGFDRNHLIESLRNRTQNDGTVTYYLILDNRFRASSGYLGAEFQETMEGTPRMHPAESVASPVSHRLPGLMEYQGVGLRSQYPVERKWALGLQSRAHPREIMTEVLKALQDLNVCWKKIGHYNMKCRWVPNSSADGMLSNSMHDNNYFGDESSIIENEAAVKSPNVVKFEIQLYKTRDDKYLLDLQRVQGPQFLFLDLCAAFLAQLRVL |
|  | binds | AD-STM (SHOOT … fused to the GAL4 activation domain) (protein, UniProt Q38874 1-382) MESGSNSTSCPMAFAGDNSDGPMCPMMMMMPPIMTSHQHHGHDHQHQQQEHDGYAYQSHHQQSSSLFLQSLAPPQGTKNKVASSSSPSSCAPAYSLMEIHHNEIVAGGINPCSSSSSSASVKAKIMAHPHYHRLLAAYVNCQKVGAPPEVVARLEEACSSAAAAAASMGPTGCLGEDPGLDQFMEAYCEMLVKYEQELSKPFKEAMVFLQRVECQFKSLSLSSPSSFSGYGETAIDRNNNGSSEEEVDMNNEFVDPQAEDRELKGQLLRKYSGYLGSLKQEFMKKRKKGKLPKEARQQLLDWWSRHYKWPYPSEQQKLALAESTGLDQKQINNWFINQRKRHWKPSEDMQFVVMDATHPHHYFMDNVLGNPFPMDHISSTML |
